In the supplement of paper PMC5770031:
The list shows a part of the results. Repeats in this data set agree poorly, so a single value says little.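 Flies heterozygous for the ATM8 allele over a balancer chromosome carrying normal ATM were mated with each other on treated food. Parents laid eggs for 5–6 days and the young then developed for about 12 days, so both parents and larvae ate the compound. The read-out is the share of all emerged adults that carry two ATM8 copies, compared with 2% DMSO control vials. The paper called compounds neutral at 10–20% such offspring, harmful below 10%, and helpful above 20%.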 Numbered stars: 1 amine (or outer) side, 2 acyl side, 3 side chain; on linkers, the order of the positions; unused ones are H or OH. Bridge positions count the residues as written; N and C are the ends. Square brackets hold non-standard residues; d marks the D form. Peptide text beside a SMILES is read from it. I, II: the chains in the order shown. Actinocin(9to1) = Cc1c2oc3c(C)ccc(C(=O)[*:1])c3nc-2c(C(=O)[*:2])c(N)c1=O; NMeV = CN[C@H](C(=O)O)C(C)C; Sar = CNCC(=O)O

System: Drosophila melanogaster ATM8 (temperature-sensitive ATM allele)
Assay: fraction of eclosed F1 progeny that are homozygous ATM8 (rescue of developmental lethality); higher = more rescue of ATM8 developmental lethality; extreme values may be limits of the assay
Details: compound concentration applied to food 0.2 mM; 21 °C

Compound	fraction of eclosed F1 progeny that are homozygous ATM8
Cc1c(OCC(F)(F)F)ccnc1C[S+]([O-])c1nc2ccccc2[nH]1 (stereo unspecified)	0.0339
CC[N+]1(C)CCCC(OC(=O)C(O)(c2ccccc2)c2ccccc2)C1 (stereo unspecified)	0.0789
Nc1nc(=O)c2c([nH]1)NCC(CNc1ccc(C(=O)N[C@@H](CCC(=O)O)C(=O)O)cc1)=N2	0.184
COC(=O)Nc1nc2cc(C(=O)c3ccc(F)cc3)ccc2[nH]1	0.192
CC1=C2C(=CO[C@H](C)[C@H]2C)C(O)=C(C(=O)O)C1=O	0.231
COc1ccc(-c2cc(=O)c3c(O)cc(OC)c(OC)c3o2)c(OC)c1	0
CCOC(=O)c1ccc(O)cc1	0.154
COc1ccc2cc1Oc1ccc(cc1)C[C@H]1c3c(cc4c(c3Oc3cc5c(cc3OC)CCN(C)[C@@H]5C2)OCO4)CCN1C	0.114
CC(O)CC(C)(C)O (stereo unspecified)	0.109
O=C(O)c1ccccc1Nc1cccc(OCc2ccc3ccccc3n2)c1	0.0833
COC1=C(OC)C(=O)C(C/C=C(\C)CC/C=C(\C)CC/C=C(\C)CC/C=C(\C)CC/C=C(\C)CC/C=C(\C)CC/C=C(\C)CC/C=C(\C)CC/C=C(\C)CCC=C(C)C)=C(C)C1=O	0.25
Cn1c(=O)c2[nH]c(Br)nc2n(C)c1=O	0.174
OCC(O)CN1CCN(c2ccccc2)CC1 (stereo unspecified)	0.214
COc1cc2c(cc1OC)C(=O)OC2	0.121
c1ccc2c(c1)OCC(C1=NCCN1)O2 (stereo unspecified)	0.0588
COc1cc(N)c(Cl)cc1C(=O)NC1CCN(CCCOc2ccc(F)cc2)CC1OC (stereo unspecified)	0.0541
COC1=CC(=O)C[C@@H](C)[C@]12Oc1c(Cl)c(OC)cc(OC)c1C2=O	0.176
CC[C@H](/C=C/[C@@H](C)[C@H]1CC[C@H]2[C@@H]3CCC4=CC(=O)CC[C@]4(C)[C@H]3CC[C@]12C)C(C)C	0.293
COc1c2c(cc3occ(-c4ccc5c(c4)OCO5)c(=O)c13)OC(C)(C)C=C2	0.0316
N#Cc1c(Cl)c(Cl)c(Cl)c(C#N)c1Cl	0.0357
COc1ccc(-c2coc3cc(O)cc(O)c3c2=O)cc1	0.0244
CCCC(CCC)C(=O)O	0.136
Cc1onc(-c2ccccc2)c1C(=O)N[C@@H]1C(=O)N2[C@@H]1SC(C)(C)[C@@H]2C(=O)O	0.196
Cc1cc(CC(C)CC(C)(C)C)n(O)c(=O)c1 (stereo unspecified)	0.104
COc1c(OC)c2occc2c2oc(=O)ccc12	0.0541
CCCC(C(=O)OCCN(CC)CC)(c1ccccc1)c1ccccc1	0.0476

Compound	fraction of eclosed F1 progeny that are homozygous ATM8
CN1CCC[C@H]1c1cccnc1	0.0702
O=S(=O)(O)CCSSCCS(=O)(=O)O	0.104
CO/N=C1\CN(c2nc3c(cc2F)c(=O)c(C(=O)O)cn3C2CC2)CC1CN (stereo unspecified)	0.0513
N[C@H](CO)Cc1ccccc1	0
Clc1ccccc1C(c1ccccc1)(c1ccccc1)n1ccnc1	0.0345
NC(=O)NO	0.179
Clc1ccc(COC(Cn2ccnc2)c2ccc(Cl)cc2Cl)cc1 (stereo unspecified)	0.147
C[C@H](CCC(=O)NCC(=O)O)[C@H]1CC[C@H]2[C@@H]3[C@H](O)C[C@@H]4C[C@H](O)CC[C@]4(C)[C@H]3C[C@H](O)[C@]12C	0.061
Oc1cc(O)c2c(c1)O[C@H](c1cc(O)c(O)c(O)c1)[C@H](O)[C@H]2c1c(O)cc(O)c2c1O[C@H](c1cc(O)c(O)c(O)c1)[C@H](O)[C@H]2c1c(O)cc(O)c2c1O[C@H](c1cc(O)c(O)c(O)c1)[C@H](O)C2	0.0645
CC[C@]1(O)C[C@@H]2CN(CCc3c([nH]c4ccccc34)[C@@](C(=O)OC)(c3cc4c(cc3OC)N(C)[C@H]3[C@@](O)(C(=O)OC)[C@H](OC(C)=O)[C@]5(CC)C=CCN6CC[C@]43[C@@H]65)C2)C1	0.261
CC(CCc1ccc(O)cc1)NCC(O)c1ccc(O)cc1 (stereo unspecified)	0.0345
CC(=O)[C@H]1CC[C@H]2[C@@H]3CC=C4C[C@@H](OC(=O)CCC(=O)O)CC[C@]4(C)[C@H]3CC[C@]12C	0.0345
CCCCC(CC)COC(=O)c1ccccc1O (stereo unspecified)	0.0741
C=C1CC=C(C)CC[C@@H]2[C@@H]1CC2(C)C	0.167
CCN(CCCc1ccccc1)CCCc1ccccc1	0.0606
COc1ccc(-n2nc(CCC(=O)N(C)O)cc2-c2ccc(Cl)cc2)cc1	0.321
O=P(O)(O)C(O)(Cc1cccnc1)P(=O)(O)O	0.157
O=C(O)c1cc(O)c(O)c(O)c1	0.163
CCN(CC)C(=O)N1CCN(C)CC1	0.0238
Cc1[nH]c2ccccc2c1CN(C)C	0.255
CN(C)CCC(c1ccccc1)c1ccccn1 (stereo unspecified)	0.192
C=CC(C1=CC(=O)C(OC)=CC1=O)c1ccc(O)cc1 (stereo unspecified)	0.222
Nc1ccn([C@@H]2O[C@H](CO)[C@@H](O)[C@H]2O)c(=O)n1	0.0645
O=C(O)/C=C/C=C/c1ccc2c(c1)OCO2	0.312
CC(C)CCC[C@@H](C)[C@H]1CC[C@H]2[C@@H]3CC=C4C[C@@H](O)CC[C@]4(C)[C@H]3CC[C@]12C	0.25
O=C(/C=C/c1ccc(O)cc1)c1ccccc1	0.184

Compound	fraction of eclosed F1 progeny that are homozygous ATM8
Cc1nccc2c1[nH]c1cc(O)ccc12	0.186
CC(=O)c1ccc2c(c1)N(CCCN1CCN(CCO)CC1)c1ccccc1S2	0.3
O=C(O)c1cc(=O)c2c(OCC(O)COc3cccc4oc(C(=O)O)cc(=O)c34)cccc2o1	0
O=c1c(O)c(-c2ccccc2)oc2cc(O)cc(O)c12	0.0682
COc1ccc(-c2coc3cc(O)cc(OC)c3c2=O)cc1	0.0408
CC(=O)OC(C)C[N+](C)(C)C (stereo unspecified)	0.111
CCCCOc1ccc(CC(=O)NO)cc1	0.135
CC(C)c1cccc(C(C)C)c1O	0.2
C=CCc1ccccc1OCC(O)CNC(C)C (stereo unspecified)	0.0816
Oc1c(Cl)cc(Cl)cc1Sc1cc(Cl)cc(Cl)c1O	0.103
COc1ccc2nc3cc(Cl)ccc3c(Nc3cc(CN4CCCC4)c(O)c(CN4CCCC4)c3)c2n1	0.167
CC(C)c1cc2c(c(O)c1O)[C@@]1(C(=O)O)CCCC(C)(C)[C@@H]1CC2	0.093
Nc1nc(=O)c2c([nH]1)NCC(CNc1ccc(C(=O)N[C@@H](CCC(=O)O)C(=O)O)cc1)N2C=O (stereo partly specified)	0.0606
COc1ccc2c(c1)OCC(Cc1ccc(OC)c(OC)c1)C2=O (stereo unspecified)	0.231
CCC(C)(C)c1ccc(CC(C)CN2C[C@@H](C)O[C@@H](C)C2)cc1 (stereo partly specified)	0
O=C(O)CC[N+](=O)[O-]	0.211
COc1ccc([C@H]2Oc3cc(OC)cc(OC)c3C[C@H]2O)cc1	0.0882
COC1=CC(=O)O[C@@H](/C=C/c2ccccc2)C1	0.171
CC[C@]12CCCN3CCc4c(n(c5ccccc45)[C@@](O)(C(=O)OC)C1)[C@@H]32	0.0556
Oc1ccc2c3c1O[C@H]1[C@@H](O)CC[C@@]4(O)[C@@H](C2)N(CC2CCC2)CC[C@]314	0.05
CC(CCc1ccc(O)cc1)NCCc1ccc(O)c(O)c1 (stereo unspecified)	0.2
O=c1cc(-c2ccccc2)oc2ccc(O)cc12	0.123
CCOc1nc2cccc(C(=O)OC(C)OC(=O)OC3CCCCC3)c2n1Cc1ccc(-c2ccccc2-c2nn[nH]n2)cc1 (stereo unspecified)	0.359
CN1CCc2cc3c(cc2[C@H]1[C@@H]1OC(=O)c2c1ccc1c2OCO1)OCO3	0.214
COC(=O)/C=C/c1ccc(O)c(O)c1	0.22
Nc1ccc(S(N)(=O)=O)cc1	0.1

Some of the entries so far, comma-delimited:
Compound,fraction of eclosed F1 progeny that are homozygous ATM8
Cc1nccc2c1[nH]c1cc(O)ccc12,0.186
CC(=O)c1ccc2c(c1)N(CCCN1CCN(CCO)CC1)c1ccccc1S2,0.3
CC(=O)OC(C)C[N+](C)(C)C (stereo unspecified),0.111
COC1=CC(=O)O[C@@H](/C=C/c2ccccc2)C1,0.171
Nc1ccc(S(N)(=O)=O)cc1,0.1

Part of the list above in order of count of non-hydrogen atoms, high to low.
Compound	fraction of eclosed F1 progeny that are homozygous ATM8
CCCC(C(=O)OCCN(CC)CC)(c1ccccc1)c1ccccc1	0.0476
Clc1ccccc1C(c1ccccc1)(c1ccccc1)n1ccnc1	0.0345
COc1ccc(-c2coc3cc(O)cc(OC)c3c2=O)cc1	0.0408
Cc1nccc2c1[nH]c1cc(O)ccc12	0.186

(listing goes on)

Compound	fraction of eclosed F1 progeny that are homozygous ATM8
Nc1ncnc2c1ncn2[C@H]1C[C@H](O)[C@@H](CO)O1	0.258
COc1cc(C)c2c(=O)cc(-c3ccccc3)oc2c1	0.125
CC(C)(Oc1ccc(C2CC2(Cl)Cl)cc1)C(=O)O (stereo unspecified)	0.225
CC1=C(C(=O)O)N2C(=O)[C@@H](NC(=O)[C@H](N)c3ccc(O)cc3)[C@H]2SC1	0.0526
CC1=CCCC(C)=CCC(C)(C)C=CC1 [HUMULENE (alpha)]	0.143
O=C1C2CC=CCC2C(=O)N1SC(Cl)(Cl)Cl (stereo unspecified)	0.116
COC1=CC(OC)=C(C)C(=O)C1=O	0.0213
CCCCCCCCCCCCCCCC[N+](C)(C)C	0.233
NC(=O)C1(N2CCCCC2)CCN(CCCC(=O)c2ccc(F)cc2)CC1	0.0423
CNC1(C)C2CCC(C2)C1(C)C (stereo unspecified)	0.111
C=C(NC(=O)C(=C)NC(=O)c1csc(C2=N[C@@H]3c4csc(n4)[C@H]4NC(=O)c5csc(n5)[C@H]([C@](C)(O)[C@@H](C)O)NC(=O)[C@H]5CSC(=N5)/C(=C/C)NC(=O)[C@H]([C@@H](C)O)NC(=O)c5csc(n5)[C@]3(CC2)NC(=O)[C@H](C)NC(=O)C(=C)NC(=O)[C@H](C)NC(=O)[C@H]([C@@H](C)CC)N[C@@H]2C=Cc3c([C@H](C)O)cc(nc3[C@H]2O)C(=O)O[C@@H]4C)n1)C(N)=O	0.25
C[C@@H]1CC2C3C[C@H](F)C4=CC(=O)C=C[C@]4(C)[C@@]3(F)[C@@H](O)C[C@]2(C)[C@@]1(O)C(=O)COC(=O)C(C)(C)C (stereo partly specified)	0.234
O=C(O)CCc1nc2ccccc2[nH]1	0.286
CN1C[C@H](CNC(=O)OCc2ccccc2)C[C@@H]2c3cccc4c3c(cn4C)C[C@H]21	0.13
Nc1nccs1	0.0541
NC(=O)c1cccnc1	0.138
CCCc1nc(C(C)(C)O)c(C(=O)OCc2oc(=O)oc2C)n1Cc1ccc(-c2ccccc2-c2nnn[nH]2)cc1	0.184
Cn1c(=O)c2c(ncn2CC(O)CO)n(C)c1=O (stereo unspecified)	0.0769
NC(=O)c1cc[n+](CC2=C(C(=O)[O-])N3C(=O)[C@@H](NC(=O)Cc4cccs4)[C@H]3SC2)cc1	0.125
Cc1nccn1CC1CCc2c(c3ccccc3n2C)C1=O (stereo unspecified)	0.05
O=C1C(O)=C(O)C(=O)C(O)=C1O	0.0909
COc1ccc2c(c1)c(CC(=O)OCC(=O)O)c(C)n2C(=O)c1ccc(Cl)cc1	0.135
Cc1c2oc3c(C)ccc(C(=O)N[C@@H]4C(=O)N[C@H](C(C)C)C(=O)N5CCC[C@H]5C(=O)N(C)CC(=O)N(C)[C@@H](C(C)C)C(=O)O[C@@H]4C)c3nc-2c(C(=O)N[C@@H]2C(=O)N[C@H](C(C)C)C(=O)N3CCC[C@H]3C(=O)N(C)CC(=O)N(C)[C@@H](C(C)C)C(=O)O[C@@H]2C)c(N)c1=O (I: T[dV]P[Sar][NMeV] / II: T[dV]P[Sar][NMeV]; ester I:1-I:C, II:1-II:C; linker I:N-II:N via Actinocin(9to1))	0
